From patent US20100291023A1 come the findings set out here.

Assay [1] has as its target T1, Bet v 1 (birch) (UniProt P15494).
T1 sequence (125I label (chloramine-T method) on the radiolabelled form, looked up): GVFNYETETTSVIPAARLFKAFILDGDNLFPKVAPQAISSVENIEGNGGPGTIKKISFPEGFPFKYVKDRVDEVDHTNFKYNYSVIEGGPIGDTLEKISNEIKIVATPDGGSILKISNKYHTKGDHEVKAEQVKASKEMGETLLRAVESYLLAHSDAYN
In words: crosslinking radio immuno assay: Bet v 1 Sepharose, antibody, 125I-labelled Bet v 1.

Assay [2] has as its target T1, Bet v 1 (birch). In words: radio immuno assay: 125I-labelled Bet v 1 bound to antibody on Protein G Sepharose.
The target of assay [3] is T1, Bet v 1 (birch). In words: radio immuno assay (Protein G Sepharose, 125I-labelled Bet v 1) on gel filtration fractions. Background: Size exclusion chromatography separates by hydrodynamic size, large species first.

No constants are given. Whether binding was seen depends on the method and setting. Some entries that bind do so weakly or less than the wild type.

B1: Betv1-IgG1 (antibody, not shown: a dimerising Fc or GST)
heavy: EVQLQQSGAELVKPGASVKLSCTASGFNIKDTYIHWVKQRPEQGLEWVGRIDPATGNTRYDPKFQGKATITADTSSNTAYLQLSSLTSEDTAVYYCASFRPGYALDYWGQGTSVTVSS
light: DIVMTQSHKFMSTSVGDRVSFTCKASQDVFTAVAWYQQKPGQSPKLLIYWASTRRTGVPDRFTGSGSGTDYTLTISSVQAEDLALYYCQQHFSTPPTFGGGTKLEIKRTVAAPSVFIFPPSDEQLKSGTASVVCLLNNFYPREAKVQWKVDNALQSGNSQESVTEQDSKDSTYSLSSTLTLSKADYEKHKVYACEVTHQGLSSPVTKSFNRGEC
As to B1, the binding result in the assay with Bet v 1 (birch) [1] and with Bet v 1 (birch) [2] was “binds” throughout.

B2: Betv1-HG (antibody, V domains shown)
VH: B1 heavy
VL: DIVMTQSHKFMSTSVGDRVSFTCKASQDVFTAVAWYQQKPGQSPKLLIYWASTRRTGVPDRFTGSGSGTDYTLTISSVQAEDLALYYCQQHFSTPPTFGGGTKLEIKR
In the case of B2, the binding entry in the assay with Bet v 1 (birch) [1], with Bet v 1 (birch) [2] and with Bet v 1 (birch) [3] was “binds” throughout.
